# Reference: PubChem BioAssay AID504847 (National Center for Advancing Translational Sciences (NCATS), 2011)
# Chains of the proteins cited; added tags and fusions are not shown.
# UniProt P11473, whole entry, looked up: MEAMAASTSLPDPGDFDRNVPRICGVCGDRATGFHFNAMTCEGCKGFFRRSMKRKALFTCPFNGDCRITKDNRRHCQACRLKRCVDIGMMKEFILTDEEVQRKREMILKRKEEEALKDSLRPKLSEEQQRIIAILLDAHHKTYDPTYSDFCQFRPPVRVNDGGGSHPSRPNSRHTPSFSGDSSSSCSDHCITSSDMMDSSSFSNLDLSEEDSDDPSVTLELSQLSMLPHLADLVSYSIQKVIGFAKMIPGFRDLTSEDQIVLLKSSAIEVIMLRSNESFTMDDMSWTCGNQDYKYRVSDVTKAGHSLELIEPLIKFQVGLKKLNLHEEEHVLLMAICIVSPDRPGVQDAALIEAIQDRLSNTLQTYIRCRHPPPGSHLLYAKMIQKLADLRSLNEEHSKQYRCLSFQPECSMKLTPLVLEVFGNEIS
# Where “and” joins values, the source holds several entries; their conditions need not be identical. Equal entries are not always repeated. Hit rate of the full screen: of about 400,000 compounds, about 3,700 (0.93%) were called active. This list was built around the results that the source calls inconclusive (neither active nor inactive); the mix of calls is not that of the screen. The call rests on the fitted dose curve; in most records, active means well fitted inhibition curve with a large enough effect; inconclusive means small, poorly fitted or top-dose-only effect, or another doubt; inactive means no such curve, though single readings can be large or run the other way. Potencies beside an inconclusive call are fits to weak or partial responses and may not hold up.
# Target: Vitamin D3 receptor (Homo sapiens) (UniProt P11473)
# Experiment: Inhibitors of the vitamin D receptor (VDR): qHTS
# Conditions: VDR-SRC2-3 peptide fluorescence polarization, 2 h; max response, negative = inhibition: stronger effect = lower value
# Outline: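 The screen uses fluorescence polarization to detect compounds that interfere with recruitment of the SRC2-3 coactivator peptide to VDR; plates are read after 2 h at room temperature.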
# On the % scale 0 is the no-effect control and ±100 the full control effect; potency means the concentration at half of the fitted maximal effect.
Structure (SMILES),Potency,"max response, negative = inhibition"
CCn1c(/C=C/c2ccc(F)cc2)nc2ccccc2c1=O,"inconclusive: 3.55 µM [inhibitor, partial curve, poor fit]",
CCN(CC)CCSC(=O)C(c1ccccc1)c1ccccc1,active: 20 µM and active: 25.1 µM,
OC(CN1CCN(c2ccccn2)CC1)Cn1c2ccc(Cl)cc2c2cc(Cl)ccc21 (stereo not drawn),,inactive: 0.526%
COC(=O)CN1C(=S)N(c2ccc(Cl)cc2)C(=O)C1CC(=O)Nc1ccc(Cl)cc1 (stereo not drawn),,inactive: -5.7%
COc1ccc(CCn2c3c(c(=O)[nH]c2=S)CN(Cc2ccccc2)CN3)cc1OC,active: 89.1 µM,
CC(=O)N1CCN(c2ccc(NCc3ccc(F)cc3)cc2)CC1,"inconclusive: 56.2 µM [inhibitor, partial curve, poor fit]",
O=C(/C=C/c1ccccn1)c1cc(Br)ccc1O,"inconclusive: 89.1 µM [inhibitor, partial curve, poor fit]",
COc1ccc(N(CC(=O)N2CCOCC2)S(C)(=O)=O)c(OC)c1,"inconclusive: 89.1 µM [inhibitor, single point]",
COc1ccccc1/C=C/c1nc(S(=O)(=O)c2ccccc2)c(N(C)C)o1,"inconclusive: 56.2 µM [inhibitor, partial curve, poor fit]",
CN1CCN(CC(=O)Nc2cccc(S(=O)(=O)N(C)c3ccccc3)c2)CC1,,inactive: -17.8%
O=C1CCCC2=C1C(c1ccc(Cl)cc1)N1C(=O)CCSC1=N2 (stereo not drawn),,inactive: -17.5%
Cc1ccc(C2(C)NC(=O)N(CC(=O)NCCC3=CCCCC3)C2=O)cc1 (stereo not drawn),,inactive: 5.61%
CC(OC(=O)c1ccc2c(=O)n3c(nc2c1)CCCCC3)C(N)=O (stereo not drawn),"inconclusive: 89.1 µM [inhibitor, single point]",
O=Cc1cc(OCc2ccccc2)ccc1[B-](F)(F)F,active: 20 µM,
CNc1ncncc1-c1ccccc1C,active: 70.8 µM,
O=C(NNC(=S)Nc1ccc(Br)cc1)c1ccccc1Br,"inconclusive: 89.1 µM [inhibitor, single point]",
Cc1oc2ccc(O)c(CN(C)Cc3ccccc3)c2c1C(=O)Nc1ccccc1,,inactive: 10.3%
COc1ccccc1CNc1nc(-c2ccccc2OC)nc2ccccc12,"inconclusive: 50.1 µM [inhibitor, partial curve, poor fit]",
COc1cc(C(=S)N2CCCCC2)ccc1O,,inactive: -13.1%
CSCC[C@H](NC(=O)[C@H](Cc1ccccc1)NC[C@@H](NC[C@@H](N)CS)C(C)C)C(=O)O,active: 8.91 µM and active: 35.5 µM,
O=C(Nc1ccc(S(=O)(=O)N2CCOCC2)cc1)c1ccc(Br)o1,,inactive: 2.77%
Oc1ccc(CNc2ccc(F)cc2)c2cccnc12,"inconclusive: 50.1 µM [inhibitor, partial curve, poor fit]",
CCOC(=O)/C(C#N)=C1/C(=O)N(Cc2ccccc2)c2ccccc21,active: 28.2 µM,

Structure (SMILES),Potency,"max response, negative = inhibition"
Oc1ccccc1C(=S)N1CCCCC1,,inactive: -21.8%
CCN(CC)S(=O)(=O)c1ccc(N2CCOCC2)c(NS(=O)(=O)c2ccc(C(C)C)cc2)c1,active: 35.5 µM,
O=C1S/C(=C\c2ccc(N3CCOCC3)o2)C(=O)N1c1ccccc1,"inconclusive: 39.8 µM [inhibitor, single point]",
O=C(O)/C=C/C(=O)c1ccc2c(c1)NC(=O)CO2,active: 22.4 µM,
CC1(OC(=O)c2ccc(Cl)nc2)C(=O)C=C2C=C3CCCN3C=C2C1=O (stereo not drawn),"inconclusive: 89.1 µM [inhibitor, partial curve, poor fit]",
COc1ccc(/C=N/n2cncn2)cc1COc1ccc(NC(C)=O)cc1,"inconclusive: 17.8 µM [inhibitor, partial curve, poor fit]",
CC1CCC2(CC1)NC(=O)N(CC(=O)N1CCN(S(=O)(=O)c3ccccc3)CC1)C2=O (stereo not drawn),,inactive: -0.225%
CN(C)C(=O)c1ccc(NC(=O)c2cccc(S(=O)(=O)N3CCCCCC3)c2)cc1,,inactive: -11.6%
CC(=NNC(=S)N1CCCCCC1)c1cccc2cccnc12,"inconclusive: 79.4 µM [inhibitor, single point]",
CC1=NN(c2ccccc2)C(=O)/C1=C\N1CC(C)OC(C)C1 (stereo not drawn),"inconclusive: 89.1 µM [inhibitor, single point]",
Cc1ccc(S(=O)(=O)/N=C2/C=C(C3C(=O)CC(C)(C)CC3=O)C(=O)c3ccccc32)cc1,"inconclusive: 56.2 µM [inhibitor, partial curve, poor fit]",
COc1ccc(C2NC(=S)NC(C)=C2C(=O)N2CCOCC2)cc1 (stereo not drawn),,inactive: -11.3%
CC(C)c1nn2c(=O)cc(O)nc2s1,"inconclusive: 89.1 µM [inhibitor, single point]",
O=C(O)c1[nH]c2ccccc2c1C(c1ccccc1)c1c(C(=O)O)[nH]c2ccccc12,"inconclusive: 56.2 µM [inhibitor, partial curve, poor fit]",
CC(=O)N1CCc2c(sc(NC(=O)Cc3ccc(C)cc3C)c2C#N)C1,"inconclusive: 17.8 µM [inhibitor, partial curve, poor fit]",
Cc1ccccc1-c1ccc2ncnc(NC3CC3)c2c1,"inconclusive: 89.1 µM [inhibitor, partial curve, poor fit]",
Cc1ccc2ncc(C(=O)Nc3ccc(F)cc3F)c(=O)n2c1,,inactive: -13.4%
CCCOc1ccc(/C=c2\sc3ncnn3c2=O)cc1,"inconclusive: 7.94 µM [inhibitor, full curve, poor fit]",
COc1ccc(CNC(=O)/C(C#N)=C/c2cccc(OC)c2OC)cc1,"inconclusive: 56.2 µM [inhibitor, partial curve, poor fit]",
CN(/N=C/c1cc([N+](=O)[O-])ccc1O)c1ccccc1,,inactive: -25.1%
Cc1cccc(-n2c(=S)[nH]c3sc4c(c3c2=O)CCc2ccccc2-4)c1,"inconclusive: 28.2 µM [inhibitor, single point]",
N#CC(=C=[N-])c1nc2ccccc2nc1-[n+]1ccccc1,"inconclusive: 25.1 µM [inhibitor, partial curve, poor fit]",
COc1ccc2[nH]c(C(=O)O)c(NS(=O)(=O)c3ccc(Cl)s3)c2c1,,inactive: 2.81%

Structure (SMILES),Potency,"max response, negative = inhibition"
O=c1c2c3c(sc2n2cnnc2n1-c1ccccc1)N(Cc1ccccc1)CCC3,"inconclusive: 14.1 µM [inhibitor, partial curve, poor fit]",
O=Cc1c(OCc2ccccc2)ccc2ccccc12,"inconclusive: 89.1 µM [inhibitor, partial curve, poor fit]",
COc1ccc(N2CCN(C(=O)Cc3ccc(OC)c(OC)c3)CC2)cc1,"inconclusive: 17.8 µM [inhibitor, full curve]",
CN(Cc1ccco1)c1ccnc(-c2cccc(NS(C)(=O)=O)c2)n1,"inconclusive: 79.4 µM [inhibitor, partial curve]",
O=C(O)CCN1C(=O)/C(=C2\C(=O)N(Cc3ccc(F)cc3)c3ccccc32)SC1=S,"inconclusive: 89.1 µM [inhibitor, partial curve, poor fit]",
CC1=NOC(=O)/C1=C\c1ccc2c(c1)OCO2,active: 89.1 µM,
Cc1ccc(C(=O)N2c3ccc(C)cc3C(C)(c3ccccc3)CC2(C)C)cc1 (stereo not drawn),"inconclusive: 100 µM [inhibitor, single point]",
CC(C)CN1CCN(Cc2ccc(Oc3ncccn3)cc2)CC1CCO (stereo not drawn),"inconclusive: 100 µM [inhibitor, single point]",
COc1cc([N+](=O)[O-])cc(/C=N/NC(=O)Cn2nccc2C)c1O,"inconclusive: 39.8 µM [inhibitor, single point]",
COc1ccc(C(=O)N2CCC[C@@]3(CCN(c4ccccc4)C3)C2)cc1,active: 56.2 µM,
COCCN1C(=O)N(C)[C@@H](c2ccccc2)C(C(C)=O)=C1C,"inconclusive: 100 µM [inhibitor, partial curve, poor fit]",
O=C(CC(c1ccc(F)cc1)c1ccco1)N1CCOCC1 (stereo not drawn),"inconclusive: 70.8 µM [inhibitor, single point]",
Nc1ccccc1SSc1ccccc1N,active: 10 µM,
CCc1nnc(NC(=O)c2nc(S(=O)(=O)Cc3ccc(C)cc3)ncc2Cl)s1,active: 22.4 µM,
Cc1ccc(C(=O)c2cc([N+](=O)[O-])ccc2N2CC(C)OC(C)C2)cc1 (stereo not drawn),active: 89.1 µM,
O=C(C=Cc1ccc(Cl)s1)c1ccc(Cl)s1,"inconclusive: 79.4 µM [inhibitor, partial curve, poor fit]",
Cn1cccc1/C=N/NC(=O)c1ccccn1,"inconclusive: 20 µM [inhibitor, partial curve, poor fit]",
COCCNc1ncnc2ccc(-c3ccccc3C(F)(F)F)cc12,"inconclusive: 44.7 µM [inhibitor, partial curve]",
COc1cccc(NC(=O)/C=C\c2ccc(Cl)cc2)c1,,inactive: -6.87%
COc1cc(/C=C2\SC(=S)N(CCC(=O)NC3CCCC3)C2=O)cc(OC)c1OC,"inconclusive: 70.8 µM [inhibitor, partial curve]",
Cc1cc(C)c[n+](-c2[nH]c(=O)sc2/C=N/NC([S-])=Nc2ccccc2)c1,"inconclusive: 89.1 µM [inhibitor, single point]",
CC(Oc1ccc2cc(-c3ccccc3)c(=O)oc2c1)C(=O)NCC1CCC(C(=O)O)CC1 (stereo not drawn),"inconclusive: 89.1 µM [inhibitor, partial curve, poor fit]",

# 14 structures from above, sorted by molecular weight, largest number first:
Structure (SMILES),Potency,"max response, negative = inhibition"
OC(CN1CCN(c2ccccn2)CC1)Cn1c2ccc(Cl)cc2c2cc(Cl)ccc21 (stereo not drawn),,inactive: 0.526%
COc1cc(/C=C2\SC(=S)N(CCC(=O)NC3CCCC3)C2=O)cc(OC)c1OC,"inconclusive: 70.8 µM [inhibitor, partial curve]",
CC(Oc1ccc2cc(-c3ccccc3)c(=O)oc2c1)C(=O)NCC1CCC(C(=O)O)CC1 (stereo not drawn),"inconclusive: 89.1 µM [inhibitor, partial curve, poor fit]",
O=C(O)c1[nH]c2ccccc2c1C(c1ccccc1)c1c(C(=O)O)[nH]c2ccccc12,"inconclusive: 56.2 µM [inhibitor, partial curve, poor fit]",
Cc1ccc(C(=O)N2c3ccc(C)cc3C(C)(c3ccccc3)CC2(C)C)cc1 (stereo not drawn),"inconclusive: 100 µM [inhibitor, single point]",
COc1ccccc1CNc1nc(-c2ccccc2OC)nc2ccccc12,"inconclusive: 50.1 µM [inhibitor, partial curve, poor fit]",
COc1ccc(N2CCN(C(=O)Cc3ccc(OC)c(OC)c3)CC2)cc1,"inconclusive: 17.8 µM [inhibitor, full curve]",
COc1ccc(N(CC(=O)N2CCOCC2)S(C)(=O)=O)c(OC)c1,"inconclusive: 89.1 µM [inhibitor, single point]",
COc1cc([N+](=O)[O-])cc(/C=N/NC(=O)Cn2nccc2C)c1O,"inconclusive: 39.8 µM [inhibitor, single point]",
CCOC(=O)/C(C#N)=C1/C(=O)N(Cc2ccccc2)c2ccccc21,active: 28.2 µM,
CC(=NNC(=S)N1CCCCCC1)c1cccc2cccnc12,"inconclusive: 79.4 µM [inhibitor, single point]",
N#CC(=C=[N-])c1nc2ccccc2nc1-[n+]1ccccc1,"inconclusive: 25.1 µM [inhibitor, partial curve, poor fit]",
Oc1ccc(CNc2ccc(F)cc2)c2cccnc12,"inconclusive: 50.1 µM [inhibitor, partial curve, poor fit]",
CC(C)c1nn2c(=O)cc(O)nc2s1,"inconclusive: 89.1 µM [inhibitor, single point]",
